The text below walks through data of the supplement of paper PMC5949888.

Most values lie at the floor of the assay. Slopes are relative: functional sequences can read slightly below zero. A value given as a limit tells only on which side of the number the result lay.

The data set has as its system Saccharomyces cerevisiae PS128 hsf1 delta, HSF1(1-493) fusion. The data set is described as follows: growth estimate (transactivation domain function in HSF1 fusion, heat-shock survival) (a.u. (slope of normalised read count over time)); higher = stronger growth at 37°C, i.e. more transactivation activity. As to conditions: library: random library.
DCSAGLGEIAGVSSNEPARR: the growth estimate was -0.243.

As to DGCVLRALVPPEVTVYFYTP, the growth estimate was below -0.25.

Consider NTRRPRLTYWHLGYDAQ, for which the growth estimate was below -0.25.

In the case of GLHWWTPIFCHNRWDLSFRE, the growth estimate is below -0.25.

Turning to QCTPSSVRFRVTCFHESVSS, the growth estimate is below -0.25.

As for AEDANRGQHNSSVSPPCAGL, the growth estimate was below -0.25.

In the case of GRAGMRGG, the growth estimate is below -0.25.

Take VACCNGSRLAQPFLAPSIEY: the growth estimate was below -0.25.

On to SDPSPGRLSGKSPVKIPKKI, for which the growth estimate is below -0.25.

Take TNTLTA: the growth estimate was -0.246.

Consider QTSLVGLIPRLLFRPISAMT, for which the growth estimate is below -0.25.

EFCQAKLRQPGYFTVAVCLF: the growth estimate was below -0.25.

Regarding MLTCRQAWIT, the growth estimate is below -0.25.

In the case of ASLSRLERRLRK, the growth estimate is below -0.25.

With IVQLEYSAPVHQRLGRGGKP, the growth estimate was below -0.25.

As for YRESGGDSMNKAPAWSSLGS, the growth estimate was below -0.25.

FSLQSWGGSESRTLEVRLLA: the growth estimate is below -0.25.

In the case of QRSIVG, the growth estimate was below -0.25.

Consider TSFEILGTAYTLKLKGETRP, for which the growth estimate was -0.245.

Consider RTCGVLPPCDGGIVGHESLQ, for which the growth estimate is below -0.25.

Regarding AMRCVLPFDSRTMTYWNVRL, the growth estimate is below -0.25.

As to GVPEVNGL, the growth estimate is below -0.25.

On to LPV, for which the growth estimate was below -0.25.

In the case of VRK, the growth estimate was below -0.25.

Regarding SHYWGSREHGPLDDGGRLWS, the growth estimate is below -0.25.

Turning to DLLRMTPACGVTVRCGYIPT, the growth estimate is below -0.25.

As for CNRKRSVTGTFNREPMDYSR, the growth estimate is below -0.25.

As for NDTPRRFVEALSHSRRRVSW, the growth estimate is below -0.25.

Consider ANQSSPTAWSICGVRSPRLR, for which the growth estimate is below -0.25.

Turning to CYARRNADIPKYFPSLAQRF, the growth estimate was below -0.25.

With PRKAGSGLTAGLNANFTNLL, the growth estimate was below -0.25.

For the substance FFCTSS, the growth estimate is below -0.25.

In the case of LELGK, the growth estimate was below -0.25.

On to ILAKRKRESPFRTPFRKSGV, for which the growth estimate is -0.246.

KQCGVSCGISPIYKTVFTMF: the growth estimate is below -0.25.

In the case of GREWTSRLVFREVVRRFMLN, the growth estimate is below -0.25.

Turning to KIDERVNSI, the growth estimate is below -0.25.

DNHMPDGYCGRSFGTVYDRG: the growth estimate was below -0.25.

Consider REKLRR, for which the growth estimate was below -0.25.

For LRMREFAIIRLASILLGYVS, the growth estimate is below -0.25.

Turning to QLD, the growth estimate is below -0.25.

With WIMDQDT, the growth estimate was below -0.25.

On to VRQVGILGGD, for which the growth estimate was below -0.25.

Regarding GGDGRRHILRGVGIVHLVIH, the growth estimate is below -0.25.

Regarding RFCAF, the growth estimate was below -0.25.

In the case of VVI, the growth estimate is below -0.25.

For the substance KLPTSAVPL, the growth estimate is below -0.25.

For MLRLLKSFARAPRADNIFLQ, the growth estimate is below -0.25.

For the substance SLHVACS, the growth estimate was -0.243.

For SVGVHEVRDETGSQAHRRWG, the growth estimate was below -0.25.

In the case of YASRGHVLLSLVLLKNRAIV, the growth estimate was below -0.25.

As to LTYTTGTTKLNPGQSSDLRT, the growth estimate is below -0.25.

Regarding CKFCYENSGEPE, the growth estimate is below -0.25.

As to SSCAVIEFLLD, the growth estimate was -0.187.

With QAPIQVFGGSGLNTMQYPI, the growth estimate was below -0.25.

As to IFCYSTQQTAS, the growth estimate was below -0.25.

Regarding ITHTFMWKLTMRGDPFCTLF, the growth estimate is below -0.25.

Take DRSTPVRIQGLPTQGHLACV: the growth estimate was below -0.25.

On to GCRGPSYTIRGRLH, for which the growth estimate is below -0.25.

As to VRGHHVGDRRKTYV, the growth estimate is below -0.25.

As for AADWEFSCAKGKCAGGGGLW, the growth estimate was below -0.25.

As for SPCRDRQHLRTMLEQIGFGV, the growth estimate was below -0.25.

Consider IHASPDIR, for which the growth estimate is below -0.25.

As for NKIVR, the growth estimate was -0.219.

Regarding NVRSKVRTSPRPY, the growth estimate is below -0.25.

For the substance LNGSQGIGRLGVSRSAAGSR, the growth estimate was below -0.25.

As to TRARRVESDWLEPASTTPLR, the growth estimate was below -0.25.

Take AERNVE: the growth estimate is below -0.25.

With ILTI, the growth estimate is below -0.25.

Take ADA: the growth estimate is below -0.25.

Turning to IHLVASHLESSTGVDSYSGV, the growth estimate is below -0.25.

For IRLEN, the growth estimate was below -0.25.

Consider VKGDMYGKCGYLQG, for which the growth estimate was below -0.25.

Turning to SVCLGGRNGWARTRVGKERG, the growth estimate is below -0.25.

Consider GVSRCLELPAEA, for which the growth estimate was below -0.25.

As to GRRSRHHVKARGTCTKGHTS, the growth estimate is below -0.25.

For the substance RPTRVWVSTRERT, the growth estimate was below -0.25.

Take WQQLVWSGQKLTISVTRWSL: the growth estimate was below -0.25.
